“And” between values parts separate entries of the source, which are not always exact repeats. Identical values can stand only once. The source gives many values for each of these; only a part stands here.
Assay: domestic pig joint penetration study: concentration in plasma
Type: in vivo
Procedure: This study was conducted to evaluate the joint penetration, systemic plasma exposure and tissue distribution of the spiro-oxindole compound in domestic pigs following topical administration of a pharmaceutical composition utilized in the methods of the invention. Fifteen female pigs were used in this study with three pigs in each group. Beginning on Day 1, a pharmaceutical composition of the invention was topically applied to the left radiocarpal joint (carpus) and tibiotarsal joint (hock) twice daily (bid) for 17 days (34 applications) for Groups 1-4 and once daily (qd) for 17 days (17 applications) for Group 5. Pre-dose blood samples (prior to morning dosing) was collected on Days 2, 7, 10, 14 and 17. A full pharmacokinetic sampling was performed on Day 17 (post am dosing) at the following time points: 1, 2, 4, 8 and 12 hr. On the day of necropsy, Day 18, blood was collected prior to euthanasia, each pig was humanely euthanized and dorsal skin and muscle, liver, kidney, heart, lung, brain, intestine, fat, ovaries, urinary bladder, sciatic nerve, and skin, muscle, synovial membrane, and synovial fluid from all 4 joints (2 treated, left carpus and hock, and 2 untreated, right carpus and hock) was collected.
The dose volume (μL/cm^2) for the test pharmaceutical compositions was 3.0 μL/cm^2 for Groups 1, 2, 3 and 5 and 1.0 μL/cm^2 for Group 4.
Approximately 2 mL of whole blood was collected prior to the morning dose administration on Days 2, 7, 10, 14 and 17. A full pharmacokinetic profile sampling was performed on Day 17 after the morning dose administration at the following time points: 1, 2, 4, 8 and 12 hr. On the day of necropsy, Day 18, blood was collected prior to euthanasia.

With `O=C1N(Cc2ccc(C(F)(F)F)o2)c2ccccc2[C@]12COc1cc3c(cc12)OCO3` [spiro-oxindole compound, (S)-1′-{[5-(trifluoromethyl)furan-2-yl]methyl}spiro[furo[2,3-f][1,3]benzodioxole-7,3′-indol]-2′(1′H)one] the “concentration in plasma, individual animals” value (“concentration in plasma” below) (G2 (#4-#6): 4% composition, 3.0 μL/cm^2 bid, Day 18) was 3.29 ng/mL, the “concentration in plasma” value (G3 (#7-#9): 8% composition, 3.0 μL/cm^2 bid, Day 2 Before dosing) was 1.47 ng/mL and 1.21 ng/mL and 2.36 ng/mL and the “concentration in plasma” value (G3 (#7-#9): 8% composition, 3.0 μL/cm^2 bid, Day 7 Before dosing) was 1.50 ng/mL and 4.40 ng/mL and 0.00 ng/mL. The “concentration in plasma” value (G3 (#7-#9): 8% composition, 3.0 μL/cm^2 bid, Day 10 Before dosing) was 5.48 ng/mL and 5.13 ng/mL and 3.64 ng/mL, the “concentration in plasma” value (G3 (#7-#9): 8% composition, 3.0 μL/cm^2 bid, Day 14 Before dosing) was 2.19 ng/mL and 4.81 ng/mL and 6.86 ng/mL and the “concentration in plasma” value (G3 (#7-#9): 8% composition, 3.0 μL/cm^2 bid, Day 17 1 hour after dosing) was 0.98 ng/mL and 9.03 ng/mL and 7.37 ng/mL. The “concentration in plasma” value (G3 (#7-#9): 8% composition, 3.0 μL/cm^2 bid, Day 17 2 hour after dosing) was 2.37 ng/mL and 4.47 ng/mL and 5.31 ng/mL, the “concentration in plasma” value (G3 (#7-#9): 8% composition, 3.0 μL/cm^2 bid, Day 17 4 hour after dosing) was 1.85 ng/mL and 4.29 ng/mL and 6.23 ng/mL and the “concentration in plasma” value (G3 (#7-#9): 8% composition, 3.0 μL/cm^2 bid, Day 17 8 hour after dosing) was 1.65 ng/mL and 3.36 ng/mL and 3.43 ng/mL. The “concentration in plasma” value (G3 (#7-#9): 8% composition, 3.0 μL/cm^2 bid, Day 17 12 hour after dosing) was 27.61 ng/mL and 16.89 ng/mL and 102.48 ng/mL, the “concentration in plasma” value (G3 (#7-#9): 8% composition, 3.0 μL/cm^2 bid, Day 17 Before dosing) was 14.43 ng/mL and 2.45 ng/mL and 3.90 ng/mL and the “concentration in plasma” value (G3 (#7-#9): 8% composition, 3.0 μL/cm^2 bid, Day 18) was 2.76 ng/mL and 6.10 ng/mL and 4.13 ng/mL. The “concentration in plasma” value (G4 (#10-#12): 8% composition, 1.0 μL/cm^2 bid, Day 2 Before dosing) was 0.24 ng/mL and 0.71 ng/mL and 1.34 ng/mL, the “concentration in plasma” value (G4 (#10-#12): 8% composition, 1.0 μL/cm^2 bid, Day 7 Before dosing) was 4.82 ng/mL and 1.89 ng/mL and 0.99 ng/mL and the “concentration in plasma” value (G4 (#10-#12): 8% composition, 1.0 μL/cm^2 bid, Day 10 Before dosing) was 1.10 ng/mL and 1.24 ng/mL and 1.88 ng/mL. The “concentration in plasma” value (G4 (#10-#12): 8% composition, 1.0 μL/cm^2 bid, Day 14 Before dosing) was 1.90 ng/mL and 2.63 ng/mL and 2.14 ng/mL, the “concentration in plasma” value (G4 (#10-#12): 8% composition, 1.0 μL/cm^2 bid, Day 17 1 hour after dosing) was 2.62 ng/mL and 5.22 ng/mL and 1.01 ng/mL and the “concentration in plasma” value (G4 (#10-#12): 8% composition, 1.0 μL/cm^2 bid, Day 17 2 hour after dosing) was 3.51 ng/mL and 3.57 ng/mL and 1.94 ng/mL. The “concentration in plasma” value (G4 (#10-#12): 8% composition, 1.0 μL/cm^2 bid, Day 17 4 hour after dosing) was 2.27 ng/mL and 2.03 ng/mL and 2.74 ng/mL, the “concentration in plasma” value (G4 (#10-#12): 8% composition, 1.0 μL/cm^2 bid, Day 17 8 hour after dosing) was 1.29 ng/mL and 2.15 ng/mL and 2.83 ng/mL and the “concentration in plasma” value (G4 (#10-#12): 8% composition, 1.0 μL/cm^2 bid, Day 17 12 hour after dosing) was 9.98 ng/mL and 15.16 ng/mL and 24.37 ng/mL. For the same compound, the “concentration in plasma” value (G4 (#10-#12): 8% composition, 1.0 μL/cm^2 bid, Day 17 Before dosing) was 1.12 ng/mL and 0.72 ng/mL and 1.41 ng/mL, the “concentration in plasma” value (G4 (#10-#12): 8% composition, 1.0 μL/cm^2 bid, Day 18) was 1.09 ng/mL and 2.36 ng/mL and 1.34 ng/mL and the “concentration in plasma” value (G5 (#13-#15): 8% composition, 3.0 μL/cm^2 qd, Day 2 Before dosing) was 2.68 ng/mL and 1.26 ng/mL and 0.43 ng/mL. The “concentration in plasma” value (G5 (#13-#15): 8% composition, 3.0 μL/cm^2 qd, Day 7 Before dosing) was 3.34 ng/mL and 0.92 ng/mL and 1.29 ng/mL, the “concentration in plasma” value (G5 (#13-#15): 8% composition, 3.0 μL/cm^2 qd, Day 10 Before dosing) was 1.14 ng/mL and 1.87 ng/mL and 1.07 ng/mL and the “concentration in plasma” value (G5 (#13-#15): 8% composition, 3.0 μL/cm^2 qd, Day 14 Before dosing) was 2.77 ng/mL and 2.74 ng/mL and 1.53 ng/mL. The “concentration in plasma” value (G5 (#13-#15): 8% composition, 3.0 μL/cm^2 qd, Day 17 1 hour after dosing) was 3.49 ng/mL and 0.67 ng/mL and 2.49 ng/mL, the “concentration in plasma” value (G5 (#13-#15): 8% composition, 3.0 μL/cm^2 qd, Day 17 2 hour after dosing) was 3.53 ng/mL and 1.65 ng/mL and 2.56 ng/mL and the “concentration in plasma” value (G5 (#13-#15): 8% composition, 3.0 μL/cm^2 qd, Day 17 4 hour after dosing) was 3.70 ng/mL and 1.85 ng/mL and 1.28 ng/mL. For the same compound, the “concentration in plasma” value (G5 (#13-#15): 8% composition, 3.0 μL/cm^2 qd, Day 17 8 hour after dosing) was 4.21 ng/mL and 7.22 ng/mL and 1.00 ng/mL, the “concentration in plasma” value (G5 (#13-#15): 8% composition, 3.0 μL/cm^2 qd, Day 17 12 hour after dosing) was 10.60 ng/mL and 4.97 ng/mL and 8.47 ng/mL and the “concentration in plasma” value (G5 (#13-#15): 8% composition, 3.0 μL/cm^2 qd, Day 17 Before dosing) was 2.17 ng/mL and 0.63 ng/mL and 0.99 ng/mL. For the same compound, the “concentration in plasma” value (G5 (#13-#15): 8% composition, 3.0 μL/cm^2 qd, Day 18) was 2.10 ng/mL and 0.96 ng/mL and 4.94 ng/mL.

From US20150216794A1, “METHODS OF TREATING PAIN ASSOCIATED WITH OSTEOARTHRITIS OF A JOINT WITH A TOPICAL FORMULATION OF A SPIRO-OXINDOLE COMPOUND” (IVAX International GmbH, priority 2014, published 2015)
